Source: patent US8513229B2, “4-Azetidinyl-1-phenyl-cyclohexane antagonists of CCR2” (Janssen Pharmaceutica NV, priority 2009, dated 2013)

Tests used:
[1] = 30 mpk, p.o. bid; high-fat diet obese mice, 40 days treatment
[2] = test system: cell migration; assay: Murine In vivo Cell Migration Assay; settings: 30 mpk, P.O. bid; human MCP-1 on small bowel serosa, 24 hours
Method: Murine In vivo Cell Migration Assay
Animals were orally dosed with vehicle or CCR2 antagonists at 3, 10 and 30 mg/kg bid. Animals underwent anesthesia and laparotomy. A distal loop of small bowel (5 cm in length) was gently eventrated onto moist sterile gauze. Synthetic human MCP-1 (1 mg/100 ml sterile PBS) or PBS alone was administered drop-wise onto the serosa of the eventrated loop. A suture knot was placed into the mesentery to mark the terminus of the treated area. Twenty-four hours later, the animal was sacrificed and the segment of bowel plus the adjacent region was removed. The tissue was opened along the mesenteric border, pinned flat and the mucosa removed. The remaining muscle layer was fixed briefly in 100% EtOH and then stained using Hanker-Yates reagent to detect myeloperoxidase-containing immune cells. At 30 mpk, P.O. bid, a compound is deemed efficacious if the inhibition of cell migration reaches 30% compared with vehicle-treated animals.

## O=C(CNC(=O)c1cccc(C(F)(F)F)c1)NC1CN(C2CCC(O)(c3ccccc3)CC2)C1 (centres unmarked) [Example #30, N-{[1-(4-Hydroxy-4-phenyl-cyclohexyl)-azetidin-3-ylcarbamoyl]-methyl}-3-trifluoromethyl-benzamide]
[1]
  reduce body weight (percent of weight loss vs vehicle-treated mice): > 8%
[2]
  blocking cell migration (efficacious if the inhibition of cell migration reaches 30% compared with vehicle-treated animals): efficacious
